In one test the target is HA-tagged MYC (human) (UniProt P01106). Put plainly: co-IP; lysates of 293T cells co-expressing HA-MYC and Flag-HEATR1, 24 h after transfection; precipitated with anti-HA (3F10) on Dynabeads Protein G, 1 h, 4 °C; lysis buffer 20 mM Tris-HCl, 150 mM NaCl, 1 mM EDTA, 1% NP-40, 0.5% sodium deoxycholate; 4 washes; western blot.
Test [1] addresses Flag-tagged HEATR1 (human) (UniProt Q9H583). Nature of the test: co-IP; lysates of 293T cells co-expressing HA-MYC and Flag-HEATR1, 24 h after transfection; precipitated with anti-Flag M2 on Dynabeads Protein G, 1 h, 4 °C; lysis buffer 20 mM Tris-HCl, 150 mM NaCl, 1 mM EDTA, 1% NP-40, 0.5% sodium deoxycholate; 4 washes; western blot. For orientation: A western blot detects proteins with antibodies after separation by electrophoresis.

Amino acid sequences for entries named in this document (tags omitted).
UniProt P01106: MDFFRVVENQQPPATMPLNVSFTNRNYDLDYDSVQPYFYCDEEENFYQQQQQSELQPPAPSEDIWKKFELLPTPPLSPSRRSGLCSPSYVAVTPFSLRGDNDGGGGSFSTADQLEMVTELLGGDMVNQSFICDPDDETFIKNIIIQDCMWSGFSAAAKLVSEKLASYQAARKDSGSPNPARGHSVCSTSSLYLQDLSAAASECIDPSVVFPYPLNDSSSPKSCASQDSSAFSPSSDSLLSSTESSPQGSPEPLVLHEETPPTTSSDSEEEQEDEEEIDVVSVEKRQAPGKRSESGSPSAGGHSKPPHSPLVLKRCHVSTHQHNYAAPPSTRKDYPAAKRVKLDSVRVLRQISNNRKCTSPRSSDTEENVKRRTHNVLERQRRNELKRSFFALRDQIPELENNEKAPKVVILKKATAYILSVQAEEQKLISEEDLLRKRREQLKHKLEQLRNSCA
UniProt Q9H583: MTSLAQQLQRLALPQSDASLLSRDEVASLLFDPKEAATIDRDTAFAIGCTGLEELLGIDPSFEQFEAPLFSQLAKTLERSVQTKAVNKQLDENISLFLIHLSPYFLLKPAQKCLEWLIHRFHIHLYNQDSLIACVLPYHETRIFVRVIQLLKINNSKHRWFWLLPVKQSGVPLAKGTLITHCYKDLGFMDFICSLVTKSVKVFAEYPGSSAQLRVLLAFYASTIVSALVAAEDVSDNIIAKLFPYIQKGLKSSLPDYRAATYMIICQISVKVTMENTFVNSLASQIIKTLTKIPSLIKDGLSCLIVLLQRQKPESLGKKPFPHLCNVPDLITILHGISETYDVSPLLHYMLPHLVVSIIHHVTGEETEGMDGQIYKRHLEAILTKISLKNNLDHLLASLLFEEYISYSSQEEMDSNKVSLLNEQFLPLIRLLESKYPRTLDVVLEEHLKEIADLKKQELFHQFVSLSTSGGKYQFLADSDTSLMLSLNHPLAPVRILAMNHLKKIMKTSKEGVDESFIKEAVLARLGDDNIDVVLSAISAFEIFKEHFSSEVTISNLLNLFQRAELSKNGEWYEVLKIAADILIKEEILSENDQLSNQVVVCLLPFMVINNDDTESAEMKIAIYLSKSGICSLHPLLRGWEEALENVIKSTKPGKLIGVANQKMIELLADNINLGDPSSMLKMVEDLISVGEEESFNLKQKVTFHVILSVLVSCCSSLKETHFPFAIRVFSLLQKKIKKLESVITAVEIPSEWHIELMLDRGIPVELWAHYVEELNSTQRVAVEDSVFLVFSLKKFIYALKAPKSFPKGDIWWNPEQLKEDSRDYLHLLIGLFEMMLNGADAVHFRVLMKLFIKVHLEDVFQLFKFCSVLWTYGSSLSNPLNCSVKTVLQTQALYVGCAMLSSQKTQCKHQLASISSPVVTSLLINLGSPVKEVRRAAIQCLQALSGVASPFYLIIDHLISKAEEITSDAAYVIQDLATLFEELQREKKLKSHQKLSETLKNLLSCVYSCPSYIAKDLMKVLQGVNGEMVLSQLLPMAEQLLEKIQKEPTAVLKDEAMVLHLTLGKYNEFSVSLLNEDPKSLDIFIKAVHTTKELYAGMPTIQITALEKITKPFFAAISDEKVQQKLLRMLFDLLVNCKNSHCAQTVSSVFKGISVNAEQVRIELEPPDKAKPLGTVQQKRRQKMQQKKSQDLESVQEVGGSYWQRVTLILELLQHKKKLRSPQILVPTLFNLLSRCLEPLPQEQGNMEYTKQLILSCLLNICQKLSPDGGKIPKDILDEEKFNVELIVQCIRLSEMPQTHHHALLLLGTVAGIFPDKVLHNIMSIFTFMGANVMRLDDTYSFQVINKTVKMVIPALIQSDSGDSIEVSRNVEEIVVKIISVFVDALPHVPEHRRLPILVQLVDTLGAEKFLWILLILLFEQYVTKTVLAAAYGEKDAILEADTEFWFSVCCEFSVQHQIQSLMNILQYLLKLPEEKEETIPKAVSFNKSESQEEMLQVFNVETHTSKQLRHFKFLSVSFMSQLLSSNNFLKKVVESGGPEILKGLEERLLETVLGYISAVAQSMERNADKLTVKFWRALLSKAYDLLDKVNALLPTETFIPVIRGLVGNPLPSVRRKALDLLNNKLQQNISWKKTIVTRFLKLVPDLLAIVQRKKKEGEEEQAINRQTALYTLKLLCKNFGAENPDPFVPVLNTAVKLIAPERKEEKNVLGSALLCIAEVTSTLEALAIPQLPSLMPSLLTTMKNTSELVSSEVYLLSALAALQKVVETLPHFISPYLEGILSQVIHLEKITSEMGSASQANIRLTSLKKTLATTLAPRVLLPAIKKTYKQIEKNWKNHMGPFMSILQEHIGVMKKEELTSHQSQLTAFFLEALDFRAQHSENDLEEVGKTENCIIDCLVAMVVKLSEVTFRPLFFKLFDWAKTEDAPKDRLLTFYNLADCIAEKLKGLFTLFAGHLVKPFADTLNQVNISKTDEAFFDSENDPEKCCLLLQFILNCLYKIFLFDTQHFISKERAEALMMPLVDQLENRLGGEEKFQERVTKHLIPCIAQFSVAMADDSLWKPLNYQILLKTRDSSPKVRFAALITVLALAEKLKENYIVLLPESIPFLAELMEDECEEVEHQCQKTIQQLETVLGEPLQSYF

No constants are given. Whether binding was seen depends on the method and setting. In cells and extracts the contact can be indirect. Some entries that bind do so weakly or less than the wild type.

From PMC10897169 come the findings set out here.

Take “Flag-tagged HEATR1 (from UniProt Q9H583 1-2144)”: the binding result in the test with HA-tagged MYC (human) is listed as “binds”.
“HA-tagged MYC (from UniProt P01106 1-454)”: the binding entry in test [1] is reported as “binds”.
